# Source: PubChem BioAssay AID2685 (National Center for Advancing Translational Sciences (NCATS), 2010)
# The other results are listed elsewhere or left out. Shown are side measurements of this screen, not its main read-out; they come without a call. The list favours compounds with an active or inconclusive main result. The note in brackets gives the kind of curve behind each potency; many fits are weak.
# Experiment: qHTS Assay for Lipid Storage Modulators in Drosophila S3 Cells;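 on cell number change: cells counted by Cell Tracker Red CMTPX staining in the red channel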
# Settings: BODIPY lipid droplet fluorescence, 18-24 h; for cell number change: measured here: cell count max response, cells fed with added oleic acid
# How it was run: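 Laser-scanning cytometry quantifies lipid droplet accumulation (500–530 nm total intensity; droplet/cell object ratio) in oleic acid-fed (400 uM added) Drosophila S3 cells treated with a concentration series. 20 uM Triacsin C defined 100% inhibition.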
# [1] = measured here: lipid fluorescence (Fed channel) AC50, cells fed with added oleic acid
# [2] = measured here: cell number channel AC50, cells fed with added oleic acid
Structure (SMILES),cell number change [%],AC50 [1],AC50 [2]
CCOC(=O)Cc1csc(NC(=O)Nc2cccs2)n1,-18.7,"5.17 nM [falling, full curve, poor fit]",
COCCNC(=O)C(c1ccc(C)o1)N(C(=O)c1snc(C(N)=O)c1N)c1ccc(C)c(C)c1 (stereo not drawn),-3.02,,
COc1cccc(C(=O)NOCc2ccc(C)cc2)c1OC,-7.57,"731 nM [rising, single point]",
CCN(CC)CCc1c(C)[nH]c(C(=O)OCc2ccccc2)c1C,24.6,,"184 nM [rising, full curve, poor fit]"
O=C(O)c1cnn2cc(-c3[nH]ncc3[N+](=O)[O-])cnc12,31.8,"2060 nM [rising, full curve, poor fit]","20600 nM [rising, single point]"
COc1ccc(S(=O)(=O)c2ccc(OC)cc2)cc1,22.8,"820 nM [falling, single point]",
Cn1c(=O)c2c(nc(CN3CCN(c4ccccc4)CC3)n2Cc2ccccc2F)n(C)c1=O,-11,"16400 nM [rising, partial curve]",
Cc1ccnc(N2C(=O)c3ccccc3C2Nc2ccc3c(c2)OCCO3)c1 (stereo not drawn),-11.6,"32600 nM [falling, single point]",
C/C(=N\NS(=O)(=O)c1ccc(Br)cc1)c1ccc2c(c1)OCO2,19.8,"29100 nM [rising, single point]",
CNC(=O)c1c(NC(=O)c2ccc(S(=O)(=O)N3CCCc4ccccc43)cc2)sc2c1CCN(C)C2,-26.1,"146 nM [falling, full curve]","651 nM [falling, full curve]"
CNC(=O)CSc1nnc(-c2ccco2)n1-c1ccccc1,0.552,,
Cc1ccc(S(=O)(=O)N(C)C)cc1NC(=O)COC(=O)c1ccc2ccccc2n1,-3.55,"3260 nM [falling, partial curve, poor fit]",
O=C(NNC1=NCCC1)C1CC1,29.2,,
COc1cc([N+](=O)[O-])ccc1NC(=O)COC(=O)c1ccc(NC(N)=O)cc1,17.2,"326 nM [rising, full curve]",
COc1ccc(OC)c(C2=NOC(C(=O)Nc3cc(C)nn3-c3ccccc3)C2)c1 (stereo not drawn),6.51,"73.1 nM [rising, full curve, poor fit]",
CN(CC(=O)Nc1ccc(Cl)c(Cl)c1)CC(=O)Nc1ccc2c(c1)OCO2,-3.49,,
COc1ccc(Cl)cc1NC(=O)CN(C)C(=O)c1ccc(C)s1,,"1460 nM [rising, partial curve]",
Cc1cccc(-c2nsc(SCC(=O)N3CCCC3)n2)c1,-20.5,"23100 nM [falling, single point]",
COc1cccc(CNCc2cccc(Br)c2)c1OC,-4.03,,"4.61 nM [falling, full curve, poor fit]"

# Part of the list above, tab-delimited:
Structure (SMILES)	cell number change [%]	AC50 [1]	AC50 [2]
Cc1ccnc(N2C(=O)c3ccccc3C2Nc2ccc3c(c2)OCCO3)c1 (stereo not drawn)	-11.6	32600 nM [falling, single point]	
C/C(=N\NS(=O)(=O)c1ccc(Br)cc1)c1ccc2c(c1)OCO2	19.8	29100 nM [rising, single point]	

# (more compounds)

Structure (SMILES),cell number change [%],AC50 [1],AC50 [2]
CC(=O)N1CCC[C@H]1C(=O)O,,"920 nM [rising, full curve]","651 nM [rising, full curve]"
Cc1ccc(NC(=O)c2nc[nH]c2C(=O)N[C@@H](C)C(=O)OC(C)(C)C)cc1,-47.7,"29100 nM [falling, single point]","32600 nM [falling, single point]"
COc1ccc(-c2csc(NC(=O)CSc3nnc(Nc4ccccc4C)s3)n2)cc1,47.5,,
O=C(C1CC1)N1CCN(c2ccc([N+](=O)[O-])cc2-n2cccc2)CC1,-25.8,"16400 nM [falling, single point]","4110 nM [falling, full curve, poor fit]"
Cc1ncc(S(=O)(=O)c2ccccc2)c(-c2ccccc2)n1,,"1640 nM [falling, partial curve]",
Cc1cccc(CSCCNC(=O)CSCc2ccc([N+](=O)[O-])cc2)c1,,"18400 nM [falling, single point]",
COc1ccc(NS(=O)(=O)c2ccc(N3CCOCC3)c(NC(=O)c3ccc(F)cc3)c2)cc1,18.5,"32600 nM [rising, single point]",
O=C(O)CCN1CCc2ccccc2C1c1ccncc1 (stereo not drawn),27.5,"9200 nM [rising, partial curve]",
O=C(CC1S/C(=N/N=C/c2cccs2)NC1=O)Nc1ccccc1F (stereo not drawn),-19.3,"116 nM [falling, full curve, poor fit]",
O=C(c1cccs1)n1nc(-c2ccco2)nc1SCc1ccccc1,,"116 nM [falling, full curve, poor fit]","116 nM [falling, full curve, poor fit]"
COC(=O)Cn1c(CN2CCN(c3ccc(F)cc3)CC2)nc2c1c(=O)n(C)c(=O)n2C,-46.3,"5800 nM [falling, partial curve]","4110 nM [falling, full curve]"
Clc1ccc(-c2nnc(NCCN3CCCC3)c3ccccc23)cc1,48.6,"29100 nM [rising, single point]",
CC1CCCN(c2ccc(C(=O)Nc3ccc4c(c3)OCO4)cc2[N+](=O)[O-])C1 (stereo not drawn),-6.34,"2310 nM [rising, partial curve]",
COc1ccc(-c2nnn(CC(=O)N(CC(=O)NC3CCCC3)Cc3cccs3)n2)cc1OC,-2.16,"18400 nM [rising, single point]",
Cc1ccc(NC(=O)CN2C(=O)NC(C)(C)C2=O)cc1S(=O)(=O)N1CCCCCC1,29.5,,
CCCC(=O)NC(=S)Nc1cccc(Cl)c1N1CCCC1,-11.4,"3260 nM [falling, partial curve]",
Cc1cc(NC(=O)CN2C(=O)c3ccccc3C2=O)no1,-9.24,"517 nM [falling, single point]",
CC(=O)Nc1ccc(S(=O)(=O)N2CCCCC2C(=O)O)cc1 (stereo not drawn),15.3,"65.1 nM [falling, full curve, poor fit]","58 nM [falling, single point]"
O=C(c1ccc(-c2ccccc2)cc1)N1CCN(c2ccccc2)CC1,13.1,"25900 nM [rising, single point]",
